Measurements as given in the supplement of paper PMC6078165.
The reference is the same well before dosing, and untreated signal decays as well.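 Labels refer to human fibroblasts, largely primary: uterine (C12385, HUF), lung (H6013), bone (Hs27A), adrenal (HADF), skin (WS1), plus mammary HMF and breast cancer-associated Hs343T. Cancer lines are basal-like or mesenchymal-like triple-negative breast cancer. The paper counts as hits responses shifting over 3x the replicate standard deviation. The tissue of the other fibroblasts is not given here.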

System: MDAMB468
Test: relative JC-1 red fluorescence (viability) vs pre-drug, coculture with fibroblast (fraction); higher = more viable cancer cells
Experimental: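 JC-1 labelled TNBC cells cocultured 1:1 (1,500 cells each) with CellTrace Violet stained primary or stromal fibroblasts in 384-well plates in FluoroBrite medium, treated with one of 42 anticancer drugs at 0.1, 1, 10 or 100 uM. JC-1 red fluorescence (mitochondrial integrity in cancer cells only) was read by plate reader every 8 h for 72 h. Values are normalised to each well's pre-drug value. The stock of one drug was tenfold lower, so its dose labels may be too high.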

N#Cc1ccc(C(c2ccc(C#N)cc2)n2cncn2)cc1 [Letrozole]
relative JC-1 red fluorescence
Settings	8 h	16 h	24 h	32 h	40 h	48 h	56 h	64 h	72 h
0.1 µM, coculture fibroblast: C12385	0.866	0.784	0.726	0.6625	0.605	0.59467	0.5541	0.519	0.515
0.1 µM, coculture fibroblast: H6013	0.8273	0.80383	0.7475	0.7278	0.6837	0.6862	0.6675	0.6508	0.604
0.1 µM, coculture fibroblast: H6019	0.8217	0.8101	0.7931	0.755	0.71	0.693	0.646	0.608	0.589
0.1 µM, coculture fibroblast: H6076	0.939	0.969	0.8677	0.8415	0.772	0.7444	0.6903	0.6645	0.678
0.1 µM, coculture fibroblast: H6231	0.8435	0.969	0.818	0.818	0.756	0.739	0.693	0.661	0.654
0.1 µM, coculture fibroblast: HADF	0.886	0.824	0.7875	0.7778	0.7135	0.7157	0.678	0.674	0.641
0.1 µM, coculture fibroblast: HCFa	0.851	0.829	0.771	0.733	0.667	0.656	0.609	0.567	0.527
0.1 µM, coculture fibroblast: HCPF	0.8932	0.944	0.8629	0.8409	0.777	0.7509	0.69	0.66901	0.6447
0.1 µM, coculture fibroblast: HHSteC	0.878	0.831	0.7808	0.744	0.685	0.683	0.618	0.593	0.543
0.1 µM, coculture fibroblast: HMF	0.871	0.962	0.878	0.849	0.78	0.748	0.697	0.681	0.658
0.1 µM, coculture fibroblast: HPFa	0.935	0.8656	0.806	0.746	0.698	0.685	0.617	0.595	0.528
0.1 µM, coculture fibroblast: HUF	0.9045	0.808	0.7498	0.688	0.625	0.604	0.559	0.536	0.516
0.1 µM, coculture fibroblast: Hs5	0.781	0.959	0.88	0.847	0.776	0.734	0.689	0.653	0.653
0.1 µM, coculture fibroblast: Hs27A	0.85682	0.8104	0.758	0.754	0.694	0.696	0.653	0.632	0.601
0.1 µM, coculture fibroblast: Hs343T	0.906	0.977	0.917	0.8868	0.8095	0.7825	0.724	0.7122	0.6844
0.1 µM, coculture fibroblast: WS1	0.821	0.7648	0.703	0.632	0.573	0.539	0.5044	0.4727	0.4617
1 µM, coculture fibroblast: C12385	0.8733	0.7998	0.776	0.724	0.6949	0.68	0.646	0.623	0.611
1 µM, coculture fibroblast: H6013	0.894	0.854	0.816	0.812	0.802	0.815	0.797	0.787	0.736
1 µM, coculture fibroblast: H6019	0.811	0.766	0.755	0.709	0.67	0.6572	0.6101	0.5814	0.554
1 µM, coculture fibroblast: H6076	0.932	0.929	0.862	0.8608	0.798	0.791	0.744	0.724	0.776
1 µM, coculture fibroblast: H6231	0.822	0.93883	0.835	0.7916	0.749	0.725	0.671	0.6356	0.626
1 µM, coculture fibroblast: HADF	0.913	0.833	0.82	0.815	0.767	0.758	0.722	0.701	0.65
1 µM, coculture fibroblast: HCFa	0.8646	0.797	0.735	0.707	0.619	0.608	0.556	0.509	0.457
1 µM, coculture fibroblast: HCPF	0.879	0.958	0.865	0.853	0.797	0.768	0.72	0.71	0.701
1 µM, coculture fibroblast: HHSteC	0.958	0.949	0.923	0.912	0.881	0.892	0.833	0.812	0.752
1 µM, coculture fibroblast: HMF	0.842	0.955	0.865	0.834	0.771	0.7377	0.6783	0.65119	0.626
1 µM, coculture fibroblast: HPFa	0.951	0.92844	0.8745	0.81	0.781	0.779	0.711	0.67	0.588
1 µM, coculture fibroblast: HUF	0.898	0.7986	0.7315	0.6526	0.597	0.561	0.5217	0.493	0.467
1 µM, coculture fibroblast: Hs5	0.768	0.9782	0.90751	0.874	0.8087	0.7758	0.739	0.7015	0.714
1 µM, coculture fibroblast: Hs27A	0.846	0.798	0.781	0.793	0.74	0.732	0.695	0.67	0.62
1 µM, coculture fibroblast: Hs343T	0.88	0.947	0.866	0.851	0.785	0.779	0.726	0.709	0.687
1 µM, coculture fibroblast: WS1	0.8709	0.801	0.75	0.69	0.662	0.63	0.592	0.568	0.556
10 µM, coculture fibroblast: C12385	0.8405	0.816	0.784	0.739	0.701	0.692	0.647	0.615	0.608
10 µM, coculture fibroblast: H6013	0.847	0.834	0.771	0.744	0.685	0.682	0.639	0.624	0.576
10 µM, coculture fibroblast: H6019	0.847	0.818	0.795	0.753	0.705	0.695	0.641	0.608	0.592
10 µM, coculture fibroblast: H6076	0.9066	0.961	0.869	0.777	0.785	0.832	0.812	0.79	0.7035
10 µM, coculture fibroblast: H6231	0.851	0.93	0.878	0.855	0.799	0.777	0.729	0.698	0.683
10 µM, coculture fibroblast: HADF	0.858	0.818	0.754	0.728	0.649	0.638	0.582	0.561	0.523
10 µM, coculture fibroblast: HCFa	0.867	0.8535	0.786	0.7502	0.6891	0.677	0.621	0.587	0.547
10 µM, coculture fibroblast: HCPF	0.853	0.944	0.87	0.868	0.79	0.7669	0.716	0.697	0.684
10 µM, coculture fibroblast: HHSteC	0.878	0.849	0.801	0.759	0.71	0.7	0.647	0.618	0.576
10 µM, coculture fibroblast: HMF	0.82725	0.943	0.851	0.8147	0.739	0.7044	0.65	0.626	0.605
10 µM, coculture fibroblast: HPFa	0.9133	0.877	0.819	0.764	0.72	0.708	0.642	0.604	0.522
10 µM, coculture fibroblast: HUF	0.8777	0.8209	0.7768	0.719	0.687	0.667	0.62	0.605	0.587
10 µM, coculture fibroblast: Hs5	0.759	0.99059	0.9242	0.866	0.799	0.768	0.72	0.668	0.677
10 µM, coculture fibroblast: Hs27A	0.862	0.834	0.769	0.765	0.707	0.693	0.643	0.613	0.566
10 µM, coculture fibroblast: Hs343T	0.8699	0.954	0.876	0.83	0.745	0.715	0.653	0.635	0.601
10 µM, coculture fibroblast: WS1	0.841	0.796	0.744	0.695	0.657	0.6316	0.5992	0.573	0.564
100 µM, coculture fibroblast: C12385	0.939	0.852	0.927	0.845	0.803	0.769	0.706	0.651	0.62
100 µM, coculture fibroblast: H6013	0.912	0.867	0.87	0.877	0.832	0.854	0.828	0.819	0.777
100 µM, coculture fibroblast: H6019	0.867	0.83	0.793	0.73	0.682	0.641	0.582	0.535	0.502
100 µM, coculture fibroblast: H6076	0.938	0.849	0.909	0.904	0.843	0.828	0.793	0.772	0.827
100 µM, coculture fibroblast: H6231	0.82	0.917	0.838	0.839	0.778	0.759	0.713	0.692	0.69
100 µM, coculture fibroblast: HADF	0.9149	0.888	0.8534	0.8577	0.806	0.80117	0.765	0.754	0.708
100 µM, coculture fibroblast: HCFa	0.8873	0.837	0.814	0.798	0.732	0.726	0.665	0.638	0.593
100 µM, coculture fibroblast: HCPF	0.904	0.858	0.936	0.935	0.854	0.83	0.784	0.767	0.754
100 µM, coculture fibroblast: HHSteC	0.928	0.8894	0.8642	0.85	0.81	0.816	0.7599	0.729	0.679
100 µM, coculture fibroblast: HMF	0.929	0.777	0.9215	0.9019	0.793	0.772	0.785	0.789	0.81
100 µM, coculture fibroblast: HPFa	0.945	0.908	0.8472	0.7934	0.739	0.733	0.657	0.618	0.542
100 µM, coculture fibroblast: HUF	0.9374	0.8558	0.8034	0.7334	0.6658	0.63439	0.59256	0.5488	0.518
100 µM, coculture fibroblast: Hs5	0.941	0.947	0.908	0.8899	0.8127	0.792	0.7522	0.718	0.735
100 µM, coculture fibroblast: Hs27A	0.862	0.805	0.767	0.767	0.698	0.678	0.64	0.607	0.58
100 µM, coculture fibroblast: Hs343T	0.909	0.964	0.92	0.901	0.814	0.794	0.742	0.716	0.703
100 µM, coculture fibroblast: WS1	0.908	0.8743	0.8283	0.7791	0.75	0.7	0.668	0.624	0.601
